The text below walks through data of article PMC3704519.

The target in the experiment is T1, FLAG-tagged evection-2 (UniProt Q96CS7).
T1 sequence: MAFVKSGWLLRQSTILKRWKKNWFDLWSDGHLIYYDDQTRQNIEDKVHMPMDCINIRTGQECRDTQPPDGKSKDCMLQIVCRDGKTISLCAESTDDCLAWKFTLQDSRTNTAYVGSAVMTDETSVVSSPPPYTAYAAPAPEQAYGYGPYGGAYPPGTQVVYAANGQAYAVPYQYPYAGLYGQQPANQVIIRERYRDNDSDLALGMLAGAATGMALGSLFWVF
The experiment is described as follows: co-IP; FLAG-evection-2 expressed in COS-1 for 24 h; post-nuclear supernatant treated with 0 or 0.1 mM DSP (2 h on ice, quenched with 20 mM Tris-HCl pH 7.4), lysed with 1% Triton X-100 in 25 mM Hepes-NaOH pH 7.3, 150 mM NaCl, 1 mM EDTA; anti-FLAG M2 affinity gel beads 2.5 h at 4°C; western blot; DSP increased the amount of SMAP2 co-precipitated. (In western blotting, separated proteins are transferred to a membrane and probed.)

Results are given in words; binding and its absence hold for the method and conditions named. In cells and extracts the contact can be indirect. Binding can be weak; no strength is given. Where a sequence is shown, tags or fusion partners need not be part of it.

Regarding GP73, the binding entry is reported as “binds”.

Consider SMAP2, for which the binding result is listed as “binds”.
